Test results published in paper PMC10575922.
These are yes or no findings as the source states them, for the method shown. In cells and extracts the contact can be indirect. Here binding means that the protein was enriched with, or labelled near, the bait; the list need not be complete. Tags and fused reporters may be left off the sequences shown.

Amino acid sequences for entries named in this document (tags omitted).
UniProt P15924: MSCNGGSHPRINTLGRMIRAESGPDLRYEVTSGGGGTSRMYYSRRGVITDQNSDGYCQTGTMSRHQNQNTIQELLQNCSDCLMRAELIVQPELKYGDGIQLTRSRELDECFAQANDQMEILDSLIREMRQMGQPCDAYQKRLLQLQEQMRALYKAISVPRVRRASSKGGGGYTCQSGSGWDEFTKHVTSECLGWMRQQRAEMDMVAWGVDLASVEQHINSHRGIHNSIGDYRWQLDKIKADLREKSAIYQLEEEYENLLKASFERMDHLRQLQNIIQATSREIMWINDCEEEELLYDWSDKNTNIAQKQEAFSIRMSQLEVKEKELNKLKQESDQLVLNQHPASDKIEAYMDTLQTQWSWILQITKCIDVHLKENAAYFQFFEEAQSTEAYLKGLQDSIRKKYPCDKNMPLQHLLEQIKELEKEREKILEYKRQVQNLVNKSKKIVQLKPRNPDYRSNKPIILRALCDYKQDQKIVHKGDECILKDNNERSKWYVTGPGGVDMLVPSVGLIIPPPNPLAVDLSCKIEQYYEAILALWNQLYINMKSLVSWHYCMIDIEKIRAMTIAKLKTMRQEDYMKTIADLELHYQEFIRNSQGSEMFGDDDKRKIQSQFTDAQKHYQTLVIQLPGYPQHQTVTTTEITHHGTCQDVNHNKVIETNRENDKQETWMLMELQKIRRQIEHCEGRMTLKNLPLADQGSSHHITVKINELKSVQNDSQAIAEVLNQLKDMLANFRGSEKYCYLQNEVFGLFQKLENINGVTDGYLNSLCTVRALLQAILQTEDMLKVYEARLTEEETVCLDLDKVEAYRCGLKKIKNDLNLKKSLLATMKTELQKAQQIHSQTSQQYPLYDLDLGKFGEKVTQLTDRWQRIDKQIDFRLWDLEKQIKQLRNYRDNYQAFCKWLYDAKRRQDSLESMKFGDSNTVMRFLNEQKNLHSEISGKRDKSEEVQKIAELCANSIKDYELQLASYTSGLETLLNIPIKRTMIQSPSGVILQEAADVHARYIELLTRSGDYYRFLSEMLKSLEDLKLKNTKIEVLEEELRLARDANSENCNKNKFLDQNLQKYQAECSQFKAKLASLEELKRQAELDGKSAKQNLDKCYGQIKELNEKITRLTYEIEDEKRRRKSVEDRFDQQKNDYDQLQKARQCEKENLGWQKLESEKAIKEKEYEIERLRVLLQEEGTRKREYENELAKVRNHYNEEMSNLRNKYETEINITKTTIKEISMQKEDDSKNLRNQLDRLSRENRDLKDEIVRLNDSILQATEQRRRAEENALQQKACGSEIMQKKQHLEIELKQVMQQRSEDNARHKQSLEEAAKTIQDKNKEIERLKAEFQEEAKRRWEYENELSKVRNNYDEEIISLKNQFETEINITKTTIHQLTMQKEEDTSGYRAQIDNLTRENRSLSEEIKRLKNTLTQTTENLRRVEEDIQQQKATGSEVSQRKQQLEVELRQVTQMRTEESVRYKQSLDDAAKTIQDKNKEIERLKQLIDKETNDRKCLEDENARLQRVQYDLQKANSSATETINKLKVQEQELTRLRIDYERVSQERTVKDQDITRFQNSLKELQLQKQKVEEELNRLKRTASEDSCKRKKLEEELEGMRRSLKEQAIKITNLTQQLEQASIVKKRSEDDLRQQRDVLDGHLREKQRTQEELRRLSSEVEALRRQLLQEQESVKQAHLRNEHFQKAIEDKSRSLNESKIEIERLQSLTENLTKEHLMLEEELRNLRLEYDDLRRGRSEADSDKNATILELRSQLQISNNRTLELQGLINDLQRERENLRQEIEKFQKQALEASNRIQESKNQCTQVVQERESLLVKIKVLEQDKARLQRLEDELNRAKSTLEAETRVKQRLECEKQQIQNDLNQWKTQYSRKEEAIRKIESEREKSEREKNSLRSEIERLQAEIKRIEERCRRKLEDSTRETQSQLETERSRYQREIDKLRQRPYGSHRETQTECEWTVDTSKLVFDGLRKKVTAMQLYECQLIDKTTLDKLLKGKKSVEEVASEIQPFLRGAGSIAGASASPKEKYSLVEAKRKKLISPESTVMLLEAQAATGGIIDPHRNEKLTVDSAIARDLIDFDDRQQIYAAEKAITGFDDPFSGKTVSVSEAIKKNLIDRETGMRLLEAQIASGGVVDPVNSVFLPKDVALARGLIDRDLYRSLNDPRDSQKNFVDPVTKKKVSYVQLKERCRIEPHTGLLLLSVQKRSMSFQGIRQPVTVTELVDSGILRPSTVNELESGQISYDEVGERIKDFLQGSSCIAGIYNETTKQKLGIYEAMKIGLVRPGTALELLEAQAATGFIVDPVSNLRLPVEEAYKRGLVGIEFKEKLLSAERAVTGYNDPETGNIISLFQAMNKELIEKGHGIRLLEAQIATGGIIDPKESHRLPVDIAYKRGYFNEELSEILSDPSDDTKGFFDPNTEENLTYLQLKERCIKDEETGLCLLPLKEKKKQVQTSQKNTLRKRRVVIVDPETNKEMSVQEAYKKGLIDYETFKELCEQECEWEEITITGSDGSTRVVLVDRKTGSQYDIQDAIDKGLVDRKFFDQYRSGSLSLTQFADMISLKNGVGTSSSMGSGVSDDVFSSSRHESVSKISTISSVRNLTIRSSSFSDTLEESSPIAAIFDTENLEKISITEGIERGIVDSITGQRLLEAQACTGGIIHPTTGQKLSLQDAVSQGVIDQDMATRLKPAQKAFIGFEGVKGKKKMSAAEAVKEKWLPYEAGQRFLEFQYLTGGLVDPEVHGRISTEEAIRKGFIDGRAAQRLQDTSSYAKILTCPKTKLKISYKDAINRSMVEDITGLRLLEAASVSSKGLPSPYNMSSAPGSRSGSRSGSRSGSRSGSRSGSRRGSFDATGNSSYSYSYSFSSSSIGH
UniProt P35579: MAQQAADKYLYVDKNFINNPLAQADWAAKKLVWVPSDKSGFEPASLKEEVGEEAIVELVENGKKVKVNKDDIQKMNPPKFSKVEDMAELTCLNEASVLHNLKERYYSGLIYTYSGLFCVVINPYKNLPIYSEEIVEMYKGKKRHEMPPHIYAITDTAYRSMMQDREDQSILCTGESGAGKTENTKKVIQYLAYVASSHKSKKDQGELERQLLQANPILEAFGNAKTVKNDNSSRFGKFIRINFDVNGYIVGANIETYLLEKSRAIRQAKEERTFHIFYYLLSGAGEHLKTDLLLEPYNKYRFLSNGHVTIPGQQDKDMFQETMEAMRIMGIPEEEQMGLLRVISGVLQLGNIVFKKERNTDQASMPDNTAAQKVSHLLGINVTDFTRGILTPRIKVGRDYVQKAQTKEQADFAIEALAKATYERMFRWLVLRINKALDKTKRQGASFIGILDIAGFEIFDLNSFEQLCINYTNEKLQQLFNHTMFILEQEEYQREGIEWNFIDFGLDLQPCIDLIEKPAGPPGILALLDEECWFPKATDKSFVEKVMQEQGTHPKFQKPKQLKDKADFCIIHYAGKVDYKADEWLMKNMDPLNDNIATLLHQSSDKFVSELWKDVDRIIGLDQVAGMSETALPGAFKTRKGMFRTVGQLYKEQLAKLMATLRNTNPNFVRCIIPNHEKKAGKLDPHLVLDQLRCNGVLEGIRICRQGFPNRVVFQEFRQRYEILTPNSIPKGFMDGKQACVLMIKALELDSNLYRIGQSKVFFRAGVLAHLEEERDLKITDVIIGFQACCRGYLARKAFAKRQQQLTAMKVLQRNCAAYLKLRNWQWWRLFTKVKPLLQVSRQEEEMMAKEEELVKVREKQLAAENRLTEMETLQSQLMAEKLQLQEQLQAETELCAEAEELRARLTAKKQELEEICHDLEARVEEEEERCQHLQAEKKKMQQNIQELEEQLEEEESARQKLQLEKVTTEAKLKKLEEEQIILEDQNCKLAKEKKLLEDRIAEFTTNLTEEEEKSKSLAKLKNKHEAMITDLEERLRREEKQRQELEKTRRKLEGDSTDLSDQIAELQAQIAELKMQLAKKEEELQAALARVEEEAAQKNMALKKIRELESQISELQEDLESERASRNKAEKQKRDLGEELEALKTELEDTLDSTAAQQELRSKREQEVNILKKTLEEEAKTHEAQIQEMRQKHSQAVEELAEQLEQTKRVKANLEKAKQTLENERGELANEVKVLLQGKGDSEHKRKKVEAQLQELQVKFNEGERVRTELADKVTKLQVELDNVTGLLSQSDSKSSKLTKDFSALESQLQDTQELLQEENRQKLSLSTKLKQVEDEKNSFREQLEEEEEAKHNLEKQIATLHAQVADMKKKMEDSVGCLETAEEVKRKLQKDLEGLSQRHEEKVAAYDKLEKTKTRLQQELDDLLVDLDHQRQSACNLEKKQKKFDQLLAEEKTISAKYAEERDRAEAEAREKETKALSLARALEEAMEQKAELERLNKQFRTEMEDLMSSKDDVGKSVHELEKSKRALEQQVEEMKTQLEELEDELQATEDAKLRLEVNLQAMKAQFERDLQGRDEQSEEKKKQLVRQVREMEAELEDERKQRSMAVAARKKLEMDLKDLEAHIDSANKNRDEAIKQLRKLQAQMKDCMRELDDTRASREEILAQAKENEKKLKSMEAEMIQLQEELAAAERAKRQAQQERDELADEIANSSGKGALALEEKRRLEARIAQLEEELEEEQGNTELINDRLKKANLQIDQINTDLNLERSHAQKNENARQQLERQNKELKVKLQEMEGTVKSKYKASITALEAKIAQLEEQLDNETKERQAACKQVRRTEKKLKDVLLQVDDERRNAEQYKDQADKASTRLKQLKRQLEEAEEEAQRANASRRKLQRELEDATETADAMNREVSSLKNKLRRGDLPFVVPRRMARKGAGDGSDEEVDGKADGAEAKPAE

B1: plakoglobin (JUP) (protein, UniProt P14923 1-745)
chain: MEVMNLMEQPIKVTEWQQTYTYDSGIHSGANTCVPSVSSKGIMEEDEACGRQYTLKKTTTYTQGVPPSQGDLEYQMSTTARAKRVREAMCPGVSGEDSSLLLATQVEGQATNLQRLAEPSQLLKSAIVHLINYQDDAELATRALPELTKLLNDEDPVVVTKAAMIVNQLSKKEASRRALMGSPQLVAAVVRTMQNTSDLDTARCTTSILHNLSHHREGLLAIFKSGGIPALVRMLSSPVESVLFYAITTLHNLLLYQEGAKMAVRLADGLQKMVPLLNKNNPKFLAITTDCLQLLAYGNQESKLIILANGGPQALVQIMRNYSYEKLLWTTSRVLKVLSVCPSNKPAIVEAGGMQALGKHLTSNSPRLVQNCLWTLRNLSDVATKQEGLESVLKILVNQLSVDDVNVLTCATGTLSNLTCNNSKNKTLVTQNSGVEALIHAILRAGDKDDITEPAVCALRHLTSRHPEAEMAQNSVRLNYGIPAIVKLLNQPNQWPLVKATIGLIRNLALCPANHAPLQEAAVIPRLVQLLVKAHQDAQRHVAAGTQQPYTDGVRMEEIVEGCTGALHILARDPMNRMEIFRLNTIPLFVQLLYSSVENIQRVAAGVLCELAQDKEAADAIDAEGASAPLMELLHSRNEGTATYAAAVLFRISEDKNPDYRKRVSVELTNSLFKHDPAAWEAAQSMIPINEPYGDDMDATYRPMYSSDVPLDPLEMHMDMDGDYPIDTYSDGLRPPYPTADHMLA

Target: T1, Halo-tagged PKP2 (cardiac specific PKP2a, wild type) (human) (UniProt Q99959)
T1 sequence: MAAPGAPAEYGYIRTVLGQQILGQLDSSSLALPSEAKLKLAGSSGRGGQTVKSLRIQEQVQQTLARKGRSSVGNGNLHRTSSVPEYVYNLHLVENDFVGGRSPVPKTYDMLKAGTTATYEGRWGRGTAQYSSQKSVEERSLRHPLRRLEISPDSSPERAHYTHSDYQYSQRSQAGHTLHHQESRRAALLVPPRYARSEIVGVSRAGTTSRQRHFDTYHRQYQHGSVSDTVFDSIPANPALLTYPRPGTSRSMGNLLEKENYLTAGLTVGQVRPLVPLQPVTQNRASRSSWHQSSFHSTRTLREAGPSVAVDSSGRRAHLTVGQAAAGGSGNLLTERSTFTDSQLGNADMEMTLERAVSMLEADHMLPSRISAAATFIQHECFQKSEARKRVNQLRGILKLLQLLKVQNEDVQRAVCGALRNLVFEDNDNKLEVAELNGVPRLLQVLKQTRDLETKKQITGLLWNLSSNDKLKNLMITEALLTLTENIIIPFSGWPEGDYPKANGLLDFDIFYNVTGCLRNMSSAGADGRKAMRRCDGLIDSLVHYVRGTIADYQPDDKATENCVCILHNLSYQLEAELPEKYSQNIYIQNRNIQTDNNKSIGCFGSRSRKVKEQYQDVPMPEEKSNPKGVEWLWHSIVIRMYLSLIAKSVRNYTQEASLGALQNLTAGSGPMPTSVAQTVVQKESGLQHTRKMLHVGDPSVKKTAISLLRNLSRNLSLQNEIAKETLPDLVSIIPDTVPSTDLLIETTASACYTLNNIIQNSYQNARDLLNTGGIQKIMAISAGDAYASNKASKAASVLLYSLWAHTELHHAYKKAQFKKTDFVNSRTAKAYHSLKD
Experiment: affinity purification with mass spectrometry; HaloTag pull-down from HEK293T lysate (Mammalian Lysis Buffer) on HaloLink resin; washed in 100 mM Tris pH 7.6, 150 mM NaCl, 1 mg/mL BSA, 0.05% IGEPAL CA-630; released with TEV protease overnight at 4 °C; LC-MS/MS

binding | Molecule
binds | desmoglein (DGS) (human (endogenous in HEK293T))
binds | desmoplakin (DSP) (from UniProt P15924 1-2871)
binds | myosin 9 (MYH9) (from UniProt P35579 1-1960)
binds | myosin 10 (MYH10) (from UniProt P35580 1-1976)
binds | B1
